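Selective DUX4 reporter inhibition in doxycycline-induced 293T-iDUX4 cells, scored as Gaussia percent activity minus Italica percent activity, after a 24-hour treatment. The test concentration is not given here. Percent difference between the Gaussia and Italica channels; more negative values mean more selective suppression of the DUX4 reporter, and higher values mean less activity.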

Values are in %. How 0% and 100% were set is not given here. Common to all entries: measured here: selective DUX4 reporter inhibition. Part of the compounds only, not a random draw; the main read-out is not listed here.

| Compound | Gaussia minus Italica difference (%) |
|---|---|
| `O=C(c1ccc2c(c1)OCO2)N1CCCCN2[C@H](CO)[C@H](c3ccc(-c4ccccc4)cc3)[C@H]2C1` | 1.656 |
| `C[C@@H]1CN([C@@H](C)CO)C(=O)c2c(c3ccccc3n2C)-c2ccccc2CO[C@H]1CN(C)Cc1ccc2c(c1)OCO2` | -22.73 |
| `Cc1ccccc1S(=O)(=O)N1CC(=O)N2[C@H](C1)[C@@H](c1ccc(C#CCN(C)C)cc1)[C@@H]2CO` | 0.08129 |
| `O=S(=O)(Cc1ccccc1)N1CCCCN2[C@H](CO)[C@H](c3ccc(-c4cccnc4)cc3)[C@H]2C1` | 3.292 |
| `O=C(C[C@H]1CC[C@@H]2[C@H](COC[C@H](O)CN2C(=O)c2cc(Cl)cc(Cl)c2)O1)N1CCc2ccccc2C1` | -14.37 |
| `COc1cccc(S(=O)(=O)N2CCCCN3[C@H](CO)[C@H](c4ccc(C#CC5CC5)cc4)[C@H]3C2)c1` | -9.522 |
| `O=C(C[C@@H]1CC[C@H]2[C@@H](COC[C@H](O)CN2S(=O)(=O)c2ccccc2Cl)O1)NCc1ccccc1Cl` | -8.316 |
| `CCCC(=O)N1CCC2(CC1)CN(S(=O)(=O)c1ccc(C)cc1)[C@H](CO)c1[nH]c3cc(OC)ccc3c12` | -12.99 |
| `COc1cccc(S(=O)(=O)N2CCCCN3[C@H](C2)[C@H](c2ccc(C#CCC(C)C)cc2)[C@@H]3CO)c1` | -8.823 |
| `COc1ccc(C#Cc2ccc([C@H]3[C@H](CO)N4CCCCN(C(=O)Cc5cccnc5)C[C@@H]34)cc2)cc1` | 1.889 |
| `O=C(Nc1ccccc1F)N1CC(=O)N2[C@@H](CO)[C@@H](c3ccc(C#CC4CC4)cc3)[C@@H]2C1` | -6.821 |
| `CN1c2ccc(-c3cccc(F)c3)cc2[C@@H]2[C@@H](CCN2C(=O)C2CCOCC2)[C@H]1CO` | -2.967 |
| `C[C@H](CO)N1C[C@H](C)[C@H](CN(C)C(=O)c2cc(Cl)cc(Cl)c2)OCc2ccccc2-c2ccccc2C1=O` | 18.13 |
| `Cc1ccccc1S(=O)(=O)N(C)C[C@@H]1OCc2ccccc2-c2ccccc2C(=O)N([C@@H](C)CO)C[C@H]1C` | -16.45 |
| `COc1ccc(C#Cc2ccc3c(c2)[C@@H]2[C@@H](CCN2C(=O)c2ccccc2F)[C@@H](CO)N3C)cc1` | -15.64 |
| `N#C[C@H]1[C@@H](c2ccccc2C2=CCCCC2)[C@@H](CO)N1S(=O)(=O)c1cccc(F)c1` | -4.88 |
| `C[C@H](NC(=O)C[C@@H]1C[C@H]2c3cc(NS(=O)(=O)c4ccc(F)cc4)ccc3O[C@H]2[C@H](CO)O1)c1ccccc1` | -8.545 |
| `COc1cccc(S(=O)(=O)N2CCCCN3[C@H](C2)[C@@H](c2ccc(C#CCC(C)C)cc2)[C@@H]3CO)c1` | -10.22 |
| `COc1cc(CN2C[C@@H]3N[C@H](C2)C3c2ccc(/C=C/c3ccccc3)cc2)cc(OC)c1` (some centres unmarked) | -5.59 |
| `Cc1ccc(S(=O)(=O)N2C[C@H](O)COC[C@H]3O[C@@H](CC(=O)NCc4ccc(Cl)c(Cl)c4)CC[C@@H]32)cc1` | -2.103 |
| `COc1ccc2c3c(n(C)c2c1)[C@H](CO)N(C(=O)c1ccc(F)cc1)CC31CCN(C(=O)Nc2ccc(F)cc2)CC1` | 4.865 |
| `COc1ccc2c3c([nH]c2c1)[C@@H](CO)N(C(=O)CN(C)C)CC31CN(Cc2ccccc2Cl)C1` | -0.9941 |
| `COc1cccc(C#Cc2ccc([C@H]3[C@@H](CO)N4C(=O)CN(C(=O)c5ccccc5)C[C@H]34)cc2)c1` | -12.27 |
| `COc1cccc(-c2ccc([C@H]3[C@@H](CO)N4CCCCN(C(=O)c5ccc6c(c5)OCO6)C[C@@H]34)cc2)c1` | -3.489 |
| `O=C(N[C@H]1CC[C@H](CCn2cc(-c3ccccc3)nn2)O[C@@H]1CO)c1ccccc1F` | -4.56 |
| `CN(C)C(=O)c1cccc(-c2ccc3c(c2)[C@@H]2[C@@H](CCN2C(=O)C2CCC2)[C@@H](CO)N3)c1` | -18.64 |
| `O=C(C[C@@H]1C[C@@H]2c3cc(NS(=O)(=O)c4ccc(F)cc4)ccc3O[C@@H]2[C@H](CO)O1)NCc1ccc(Cl)cc1` | -5.247 |
| `CN1c2ccc(-c3ccccc3)cc2[C@H]2[C@H](CCN2C(=O)c2ccccc2)[C@H]1CO` | -7.18 |
| `CCC(=O)Nc1ccc2c(c1)OC[C@H](C)N(Cc1ccccc1)C[C@@H](C)[C@@H](OC)CN(C)C2=O` | -8.224 |
| `O=C(C[C@@H]1CC[C@@H]2[C@H](COC[C@H](O)CN2Cc2nccs2)O1)NCc1ccc(Oc2ccccc2)cc1` | -6.495 |
| `C[C@@H]1CN([C@@H](C)CO)C(=O)c2c(c3ccccc3n2C)-c2ccccc2CO[C@H]1CN(C)S(=O)(=O)c1cccc(F)c1` | -15.27 |
| `COc1ccccc1S(=O)(=O)N1CC[C@@H]2[C@H](CO)Nc3ccc(-c4ccccc4F)cc3[C@@H]21` | 12.69 |
| `COc1cccc(S(=O)(=O)N2CCCCN3[C@H](CO)[C@@H](c4ccc(C#CC5CC5)cc4)[C@@H]3C2)c1` | -17.44 |
| `O=C(c1ccccc1F)N1CC[C@@H]2[C@@H](CO)Nc3ccc(C#Cc4ccc(F)cc4)cc3[C@@H]21` | -18.06 |
| `O=C(Cc1ccccc1)N1CC[C@@H]2[C@H](CO)Nc3ccc(C4=CCCCC4)cc3[C@@H]21` | 21.69 |
| `N#Cc1cccc(-c2ccc3c(c2)[C@@H]2[C@@H](CCN2Cc2ccncc2)[C@@H](CO)N3)c1` | -5.32 |
| `O=S(=O)(c1ccccc1)N1C[C@@H]2N[C@H](C1)C2c1ccc(-c2ccc(F)cc2)cc1` (some centres unmarked) | -6.969 |
| `O=C(CC1CC1)N1CC[C@@H]2[C@H]1c1cc(-c3cccc(F)c3)ccc1N[C@@H]2CO` | -16.68 |
| `CN1CCN(C(=O)C[C@H]2C[C@H]3c4cc(NC(=O)Nc5ccc(C(F)(F)F)cc5)ccc4O[C@H]3[C@H](CO)O2)CC1` | -2.724 |
| `O=C(c1ccc2c(c1)OCO2)N1CC(=O)N2[C@H](CO)[C@H](c3ccc(C#CC4CCCC4)cc3)[C@H]2C1` | 1.977 |
| `C/C=C/c1ccc([C@H]2[C@@H](CO)N(CC3CCCC3)C23CN(C(=O)COC)C3)cc1` | -6.59 |
| `N#Cc1cccc(-c2ccc3c(c2)[C@H]2[C@H](CCN2S(=O)(=O)c2cccc(F)c2)[C@@H](CO)N3)c1` | 4.123 |
| `O=C(C1CCCCC1)N1CC2(C1)[C@@H](c1ccccc1)[C@@H](CO)N2C(=O)c1cccnc1` | -16.08 |
| `COC(=O)[C@H]1[C@H](CO)[C@H]2Cn3c(ccc(C4=CCCCC4)c3=O)[C@@H]1N2CC1CCCC1` | -15.7 |
| `COc1ccc(C#Cc2ccc([C@H]3[C@H](CO)N4CCCCN(C(=O)Cc5ccccc5)C[C@@H]34)cc2)cc1` | -23.08 |
| `C[C@@H]1CN([C@H](C)CO)C(=O)c2ccccc2-c2ccccc2CO[C@@H]1CN(C)Cc1ccccc1C(F)(F)F` | -10.89 |
| `Cc1ccccc1S(=O)(=O)N1C[C@H](O)COC[C@H]2O[C@@H](CC(=O)NCCc3ccccc3)CC[C@@H]21` | -10.88 |
| `CCc1sc(N2[C@H](C#N)[C@H](c3ccccc3-c3ccc(F)cc3)[C@H]2CO)nc1C` | -13.52 |
| `COc1ccccc1C#Cc1ccc2c(c1)[C@H]1[C@H](CCN1C(=O)c1ccc(F)cc1)[C@H](CO)N2` | -23.83 |
| `CN(C)C(=O)c1cccc(-c2ccc3c(c2)[C@@H]2[C@@H](CCN2S(=O)(=O)c2ccccc2)[C@H](CO)N3)c1` | 17.35 |
| `O=C(c1ccccc1)N1CC(=O)N2[C@H](CO)[C@@H](c3ccc(/C=C/c4ccccc4)cc3)[C@@H]2C1` | -5.069 |
| `Cc1cccc(-c2ccc([C@@H]3[C@H](CO)N4C(=O)CN(C(=O)c5ccccc5)C[C@@H]34)cc2)c1` | -2.088 |

For reference, 4 entries once more:

- COc1ccccc1C#Cc1ccc2c(c1)[C@H]1[C@H](CCN1C(=O)c1ccc(F)cc1)[C@H](CO)N2 : Gaussia minus Italica difference -23.83%
- O=S(=O)(Cc1ccccc1)N1CCCCN2[C@H](CO)[C@H](c3ccc(-c4cccnc4)cc3)[C@H]2C1 : Gaussia minus Italica difference 3.292%
- O=S(=O)(c1ccccc1)N1C[C@@H]2N[C@H](C1)C2c1ccc(-c2ccc(F)cc2)cc1 (some centres unmarked) : Gaussia minus Italica difference -6.969%
- COc1ccc2c3c([nH]c2c1)[C@@H](CO)N(C(=O)CN(C)C)CC31CN(Cc2ccccc2Cl)C1 : Gaussia minus Italica difference -0.9941%

The results are deposited in PubChem (AID1224904; Broad Institute, 2016).